In publication PMC8426237, “A first-in-human phase I study of TAS0728, an oral covalent binding inhibitor of HER2, in patients with advanced solid tumors with HER2 or HER3 aberrations” (Investigational New Drugs, 2021):

Assay: Phase I safety assessment: adverse events (CTCAE v5.0) in patients
Conditions: overall all treated population (N = 19)

## C=CC(=O)N1CCC[C@@H](n2nc(C(=O)Nc3ccc(CC(=O)N(C)C)c(C)c3C)c3c(N)ncnc32)C1 [TAS0728]
  Mean relative dose intensity (actual amount of dose administered/amount of planned dose): 74.9%
  Median number of cycles: 4.6
  Median treatment duration: 81.0 days
